Data as given in PubChem BioAssay AID1224826 (NIAID, 2016)
In all, the deposit lists about 17,000 reagents; this is an unselected part. Over the whole deposit, about 1,110 (6.6%) are marked active. 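Active means lowered or raised reporter signal; replicate intensities are raw and not normalised per plate.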 Further read-outs or replicates are left out here. Reagent sequences are not shown.

Screen: 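Knock-downs that raise or lower Tnf reporter signal after endotoxin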 (primary screen)
System: RAW264.7 G9 macrophages from mouse bearing reporters for p65 (GFP) and the Tnf promoter (mCherry)
Knock-down reagent: siRNA pool against mouse genes, 100 nM
Duration: 16 h of LPS stimulation, after 2 days of siRNA transfection
Conditions: bacterial lipopolysaccharide (Salmonella minnesota R595), 10 ng/ml
Measurement: 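Imaged Tnf reporter mCherry in nuclei, minus background, normalised per plate to the median and expressed as robust z-scores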
Direction: Tnf reporter robust z-score: higher = stronger Tnf promoter reporter signal after LPS
Rule for the call: 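Called active when robust z-score is at most -1.3, matching the median of the Tlr4 knock-down control, or over 3; control wells and wells with under 50 cells never active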
Meaning of the calls: active = Tnf reporter clearly lowered or raised; inactive = no clear change in Tnf reporter

The first 9 entries as a preview:
Gene	Tnf reporter robust z-score	fewer than 50 cells in well	outcome
Gnpda1	0.11	enough cells in well	inactive
Dsp	0.35	enough cells in well	inactive
Cyth4	0.76	enough cells in well	inactive
Scin	-1.08	enough cells in well	inactive
Or5w10	0.8	enough cells in well	inactive
Raet1c	0.9	enough cells in well	inactive
Grid2ip	0.36	enough cells in well	inactive
Zdhhc16	-1.35	enough cells in well	active
Ager	-0.31	enough cells in well	inactive

The listing, from the first entry:
Gene	Tnf reporter robust z-score	fewer than 50 cells in well	outcome
Gnpda1	0.11	enough cells in well	inactive
Dsp	0.35	enough cells in well	inactive
Cyth4	0.76	enough cells in well	inactive
Scin	-1.08	enough cells in well	inactive
Or5w10	0.8	enough cells in well	inactive
Raet1c	0.9	enough cells in well	inactive
Grid2ip	0.36	enough cells in well	inactive
Zdhhc16	-1.35	enough cells in well	active
Ager	-0.31	enough cells in well	inactive
Hykk	1.18	enough cells in well	inactive
Smarcc1	0.09	enough cells in well	inactive
1700092C17Rik	-0.88	enough cells in well	inactive
Tmbim1		fewer than 50 cells per well; well left out of calls	inactive
Cdt1	1.34	enough cells in well	inactive
Slc23a2	2.51	enough cells in well	inactive
Necap2		fewer than 50 cells per well; well left out of calls	inactive
Rcn2	3.61	enough cells in well	active
Ttc8	-0.16	enough cells in well	inactive
Ercc2	0.1	enough cells in well	inactive
Ftcd	-0.26	enough cells in well	inactive
Leprot	-0.44	enough cells in well	inactive
Mapre2	0.22	enough cells in well	inactive
Slc6a6		fewer than 50 cells per well; well left out of calls	inactive
Isy1		fewer than 50 cells per well; well left out of calls	inactive
Adam17	1.28	enough cells in well	inactive
P2ry10	-1.66	enough cells in well	active
Tmem19	0.83	enough cells in well	inactive
Ube2b	0.41	enough cells in well	inactive
Slc16a1	0.61	enough cells in well	inactive
Sugt1		fewer than 50 cells per well; well left out of calls	inactive
Or13f5	0.33	enough cells in well	inactive
Or51k1	1.54	enough cells in well	inactive
Tube1	-0.15	enough cells in well	inactive
Adipor2	0.81	enough cells in well	inactive
Foxo1	-0.76	enough cells in well	inactive
Gm9975	1.11	enough cells in well	inactive
Dhx58	0.92	enough cells in well	inactive
Prkag1	-0.11	enough cells in well	inactive
Or4c105	0.28	enough cells in well	inactive
Irf7	0.4	enough cells in well	inactive
Tle3	0.66	enough cells in well	inactive
Psmb5	4.36	enough cells in well	active
Myd88	-2.01	enough cells in well	active
Psg28	-0.7	enough cells in well	inactive
Fau	-1.55	enough cells in well	active
H2bc26	-1.18	enough cells in well	inactive
Slc25a37	1.51	enough cells in well	inactive
Pmm2	-0.43	enough cells in well	inactive
Mela	-0.6	enough cells in well	inactive
Slc25a19	0.03	enough cells in well	inactive
Aplp2		fewer than 50 cells per well; well left out of calls	inactive
Lrrc57	2.3	enough cells in well	inactive
Or5t9	-0.12	enough cells in well	inactive
C5ar1	-0.87	enough cells in well	inactive
Slc35a3		fewer than 50 cells per well; well left out of calls	inactive
Klrd1	0.09	enough cells in well	inactive
Gabrr2		fewer than 50 cells per well; well left out of calls	inactive
Atp6v0e2	-0.02	enough cells in well	inactive
Trmt2a	-0.67	enough cells in well	inactive
Jakmip1	-0.58	enough cells in well	inactive
Or10a3m	1.33	enough cells in well	inactive
Dgcr6	0.1	enough cells in well	inactive
Kcne4	-1.48	enough cells in well	active
Plekha4	0.45	enough cells in well	inactive
Gabra2	-0.09	enough cells in well	inactive
Lmtk2	3.66	enough cells in well	active
Rbm42		fewer than 50 cells per well; well left out of calls	inactive
Frmd3	-0.94	enough cells in well	inactive
Cnot2	0.42	enough cells in well	inactive
Sez6l2	0.1	enough cells in well	inactive
Glis3		fewer than 50 cells per well; well left out of calls	inactive
Rnf183		fewer than 50 cells per well; well left out of calls	inactive
Yap1	-0.31	enough cells in well	inactive
Epyc	0.59	enough cells in well	inactive
Pex5	-0.19	enough cells in well	inactive
